Percent effect of library compounds

Measurements from “University of Dundee, Small-Polar-MMV Screening Library” (2021), ChEMBL document CHEMBL3988442.

Results are given as percent effect. How 0% and 100% were set is not recorded. Most values in the screen are low, and negative values occur. The compounds are a random part of those screened. Two or more numbers in one place are separate tests of the same structure; such repeats can differ widely.

A: 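Phenotypic screen: M. tuberculosis growth, cholesterol and DPPC medium, 4 days; the read-out is not stated. Tested at 50 µM. Higher reads as more growth inhibition (inferred: compounds with an IC50 in retests scored well above the rest). Size under these conditions: about 69,000 compounds, about 370 of them at 50% or above in at least one test.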
B: 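Growth of Mycobacterium tuberculosis over 3 days (7H9 medium with glucose and tyloxapol); the read-out is not stated. Compounds at 50 µM. Direction is inferred from retests: higher values go with more growth inhibition. Of about 69,000 compounds tested this way, about 760 (1.1%) reached 50% or more in at least one test.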

compound: CC(C)(C)NC(=O)NC(=O)CNC(C)(C)c1ccc2c(c1)OCCO2
A: 24.23
B: 18.74

compound: Cc1cc(C2CCC2)nc(NCC(C)(C)N2CCOCC2)n1
A: -6.984
B: -21.78

compound: CN1CCc2c(sc3c2C(=O)NC(/C=C/c2ccccc2)N3)C1 (stereo unspecified)
A: -13.62
B: -34.87

compound: O=C(c1c(F)cccc1F)N1CCOCC1
A: 29.78
B: -40.37

compound: CCC1CN(CC(=O)NCCN(CC)CC)c2ccccc2S1 (stereo unspecified)
A: 5.505
B: -6.678

compound: [H][C@@]12CCC(=O)N(CC3CCNCC3)[C@]1([H])CCN(Cc1ncc[nH]1)C2
A: 1.147 & -4.605
B: 11.4

compound: COc1ccnc(NC(=O)CSCc2cccnc2)c1
A: -5.86
B: -4.807

compound: O=S(=O)(NCCNc1cc(-n2cccn2)ncn1)c1cccs1
A: -8.444
B: -16.24 & 5.048

compound: CNc1cc(N2CCCC2CNCc2cccs2)ncn1 (stereo unspecified)
A: 9.44
B: -1.26

compound: Cc1nn(C)c(N2CCOCC2)c1CNCC1CCCN1C (stereo unspecified)
A: 0.4193
B: -8.952

compound: Cc1ccc(-c2cn3c(n2)CO[C@@H](CNCc2nccn2C)C3)cc1
A: -16.7
B: 9.384 & 4.188

compound: CCN(CCO)C[C@@H]1CN(c2cc(C(F)(F)F)cc(C)n2)C[C@@H]1CO
A: 3.101
B: -6.648

compound: CCNC(=O)c1cccc(CNC(=O)c2cnc(C(C)(C)C)s2)c1
A: -0.1242
B: 11.58

compound: CC1CCCN(C(=O)Nc2cccc(CN3CCOC3=O)c2)C1 (stereo unspecified)
A: -24.12
B: -50.57

compound: CCc1ccc(CNC[C@H]2C[C@@H](CO)N(C)[C@H]2c2ccccc2F)o1
A: 25.4
B: 25.68

compound: CN(C)C1COC2(CCN(S(=O)(=O)c3ccc(F)cc3)CC2)C1.O=C(O)C(F)(F)F (stereo unspecified)
A: 13.65
B: -12.59

compound: Cc1n[nH]c(C)c1NC(=O)CN1CCOC(Cn2cccn2)C1 (stereo unspecified)
A: -16.04
B: 11.79

compound: CS(=O)(=O)N1CCN(CC(O)COc2ccc(F)cc2)CC1 (stereo unspecified)
A: -14.56
B: -1.047

compound: O=C(O)C(F)(F)F.O=C(O)C(F)(F)F.[H][C@@]12CCN(Cc3ccco3)[C@]1([H])CC[C@@H](C(=O)NCCc1ccncc1)O2
A: 11.97
B: 13.74 & 0.8152

compound: COc1cc(Oc2ccc(C(F)(F)F)cn2)ccc1CN1CCCC1
A: 54.32
B: 72.4

compound: Nc1cc(-c2ccc(C(=O)O)cc2O)c2cc[nH]c2n1
A: 10.03
B: -41.25

compound: CC(NC(=O)NCCCn1cncn1)c1ccc2c(c1)CC(=O)N2 (stereo unspecified)
A: -13.57
B: -20.55

compound: O=C(O)C(F)(F)F.[H][C@]12CC[C@@]3(N=C(C)N(CC(C)C)C3=O)[C@@]1([H])CN(CC(=O)N(C)C)C2
A: -57.66
B: -49.78

compound: CN(C)c1ccccc1C(=O)N1CCOC2(CNCCOC2)C1 (stereo unspecified)
A: -7.277 & -2.578
B: 0.9569

compound: Cc1nc(CN2CCN(CCCc3nc4ccccc4o3)CC2)no1
A: -26 & -5.577
B: -22.36

compound: Cc1ccc2nc(CNCCCN3CCCC3)cc(O)c2c1
A: 0.597
B: 2.169 & -1.968

compound: CCc1cc(C(F)(F)F)c2c(C3CCCN(C(=O)COC)C3)noc2n1 (stereo unspecified)
A: -3.041
B: -13.69

compound: COc1ccccc1C1CNCCN1C(C)=O (stereo unspecified)
A: -24.19
B: -36.7

compound: CCC(C(=O)NCCc1nc(C)cc(C(F)(F)F)n1)n1cccn1 (stereo unspecified)
A: -18.21
B: -28.93

compound: CCOC(=O)C1=NOC(Cc2cc(OC)c3c(c2)OCO3)C1 (stereo unspecified)
A: -12.85
B: 18.51

compound: COCCOc1ccc(CNc2cnc3ccccc3n2)cn1
A: -3.427
B: 27.86

compound: Cn1cc(CC(=O)N2CCCC(c3ccn[nH]3)C2)cn1 (stereo unspecified)
A: 2.673
B: 6.538

compound: O=C(O)C(F)(F)F.O=C(O)C(F)(F)F.O[C@H]1CCN(CC2CC2)[C@H]1Cc1ccncc1
A: -18.04
B: -3.809 & -29.21

compound: Cc1cccc(COC2COC3(CCN(Cc4ccoc4)CC3)C2)n1 (stereo unspecified)
A: -6.536
B: 23.7

compound: Cc1nn(C)c(C)c1S(=O)(=O)NCC(C)(O)c1ccc2c(c1)OCO2 (stereo unspecified)
A: 13.53
B: 31.64 & -1.716

compound: O=C(CN1CCOC1=O)N1CCc2nnc(Cc3ccccc3)n2CC1
A: -12.06
B: -0.7069 & -7.794

compound: O=C(c1ccnnc1)N1CCc2onc(CN3CCCC3)c2C1
A: 10.93
B: 28.11 & 9.151

Repeated from the top, 4 entries:

| compound | A | B |
|---|---|---|
| `CC(C)(C)NC(=O)NC(=O)CNC(C)(C)c1ccc2c(c1)OCCO2` | 24.23 | 18.74 |
| `Cc1cc(C2CCC2)nc(NCC(C)(C)N2CCOCC2)n1` | -6.984 | -21.78 |
| `CN1CCc2c(sc3c2C(=O)NC(/C=C/c2ccccc2)N3)C1` (stereo unspecified) | -13.62 | -34.87 |
| `O=C(c1c(F)cccc1F)N1CCOCC1` | 29.78 | -40.37 |